We go through one compound from BindingDB's records for PubMed 1930610 (Eli Lilly, 1991).

For this experiment, the target named is T1, 5-hydroxytryptamine receptor 3A (Rattus norvegicus, UniProt P35563).
T1 sequence (P35563 whole entry): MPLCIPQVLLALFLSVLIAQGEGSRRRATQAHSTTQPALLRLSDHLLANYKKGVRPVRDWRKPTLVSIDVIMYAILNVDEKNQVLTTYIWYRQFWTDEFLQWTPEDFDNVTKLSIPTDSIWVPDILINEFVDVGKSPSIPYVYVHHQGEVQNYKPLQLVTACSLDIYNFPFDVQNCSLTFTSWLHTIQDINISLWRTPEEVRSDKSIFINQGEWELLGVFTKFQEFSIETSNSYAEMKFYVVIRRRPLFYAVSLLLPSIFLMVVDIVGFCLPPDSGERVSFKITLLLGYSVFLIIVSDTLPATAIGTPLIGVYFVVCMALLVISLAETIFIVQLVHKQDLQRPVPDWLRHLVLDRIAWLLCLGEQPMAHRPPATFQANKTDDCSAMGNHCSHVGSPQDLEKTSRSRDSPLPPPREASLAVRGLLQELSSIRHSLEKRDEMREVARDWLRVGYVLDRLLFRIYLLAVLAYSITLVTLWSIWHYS

Turning to `CNCC[C@@H](Oc1ccc(C(F)(F)F)cc1)c1ccccc1` [Prozac], the Ki (commonly a measure of affinity in units of concentration, obtained from inhibition or displacement) was more than 10 µM.
